Experimental data published in patent publication US12023391B2, “Alpha(v)beta(6) integrin-binding peptides and methods of use thereof” (The Regents of the University of California, priority 2016, dated 2024).
For at least one compound, name, drawing or mass did not settle the structure.

Sequences of proteins named here, by UniProt entry; tags and fusion partners are left off. Residues count along the entry.
UniProt P06756, 891-1048 partner limits assumed: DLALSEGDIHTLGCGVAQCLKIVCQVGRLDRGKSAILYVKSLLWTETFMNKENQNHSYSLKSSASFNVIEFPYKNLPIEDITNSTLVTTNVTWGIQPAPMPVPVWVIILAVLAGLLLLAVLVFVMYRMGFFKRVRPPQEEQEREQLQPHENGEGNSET
UniProt P06756, 31-889 limits assumed: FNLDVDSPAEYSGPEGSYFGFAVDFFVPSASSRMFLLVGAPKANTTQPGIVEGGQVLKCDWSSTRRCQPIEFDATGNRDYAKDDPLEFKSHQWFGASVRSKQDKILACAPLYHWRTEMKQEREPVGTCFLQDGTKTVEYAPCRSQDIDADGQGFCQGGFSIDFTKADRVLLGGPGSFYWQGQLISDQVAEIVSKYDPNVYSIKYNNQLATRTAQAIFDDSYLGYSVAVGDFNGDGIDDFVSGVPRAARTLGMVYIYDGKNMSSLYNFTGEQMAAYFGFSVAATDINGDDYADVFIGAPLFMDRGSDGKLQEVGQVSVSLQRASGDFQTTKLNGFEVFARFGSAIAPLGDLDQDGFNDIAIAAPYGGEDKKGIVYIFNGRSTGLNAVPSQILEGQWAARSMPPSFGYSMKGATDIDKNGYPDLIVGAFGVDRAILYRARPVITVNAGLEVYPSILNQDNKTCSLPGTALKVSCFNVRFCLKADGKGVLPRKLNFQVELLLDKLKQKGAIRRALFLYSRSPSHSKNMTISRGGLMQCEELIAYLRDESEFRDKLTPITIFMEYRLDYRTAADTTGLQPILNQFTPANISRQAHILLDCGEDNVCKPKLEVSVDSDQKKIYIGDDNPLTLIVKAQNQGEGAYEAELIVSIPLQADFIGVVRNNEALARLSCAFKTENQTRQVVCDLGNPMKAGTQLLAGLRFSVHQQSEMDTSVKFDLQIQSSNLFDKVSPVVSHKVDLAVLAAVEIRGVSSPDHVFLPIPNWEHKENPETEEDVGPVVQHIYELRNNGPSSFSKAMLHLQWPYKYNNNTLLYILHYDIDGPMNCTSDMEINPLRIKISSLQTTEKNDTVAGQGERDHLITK
UniProt P18564, 22-788: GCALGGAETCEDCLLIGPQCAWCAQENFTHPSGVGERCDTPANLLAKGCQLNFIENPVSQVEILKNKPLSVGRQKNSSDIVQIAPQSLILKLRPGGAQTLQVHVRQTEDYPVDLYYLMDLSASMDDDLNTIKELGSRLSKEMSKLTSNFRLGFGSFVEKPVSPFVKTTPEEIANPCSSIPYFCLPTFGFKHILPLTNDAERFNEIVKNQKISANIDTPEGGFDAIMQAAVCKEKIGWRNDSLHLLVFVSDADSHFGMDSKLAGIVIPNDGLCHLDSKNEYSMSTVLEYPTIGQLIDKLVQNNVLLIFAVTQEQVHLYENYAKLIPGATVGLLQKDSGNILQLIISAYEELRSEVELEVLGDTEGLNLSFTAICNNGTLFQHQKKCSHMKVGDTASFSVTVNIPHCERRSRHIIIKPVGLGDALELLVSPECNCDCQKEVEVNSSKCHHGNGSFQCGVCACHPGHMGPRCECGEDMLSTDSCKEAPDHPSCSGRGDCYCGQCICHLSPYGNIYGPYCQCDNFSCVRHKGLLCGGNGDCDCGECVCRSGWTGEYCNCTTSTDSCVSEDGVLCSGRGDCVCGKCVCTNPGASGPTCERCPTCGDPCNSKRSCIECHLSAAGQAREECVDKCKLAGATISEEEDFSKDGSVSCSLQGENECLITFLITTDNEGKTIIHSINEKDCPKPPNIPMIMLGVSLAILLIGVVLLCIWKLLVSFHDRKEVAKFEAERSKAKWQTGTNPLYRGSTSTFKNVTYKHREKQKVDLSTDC

Biological target: αvβ6 integrin (Homo sapiens, UniProt P06756+P18564)
Experiment: Competitive binding ELISA with purified integrin, αvβ6
Details: read-out: IC50 (αvβ6 integrin) in nM, ST1-62 peptide optimization
Experimental: Small aliquots (50 mg, ˜150,000 beads) were incubated with a mixture of red fluorescent DX3 ITGβ6 mCherry (αvβ6-positive) and green fluorescent DX3 EmGFP (αvβ6-negative) cells for 3 hours and evaluated under a fluorescent microscope. Beads that were covered only by red (i.e. αvβ6-positive) cells were isolated; these beads were subsequently characterized by Edman sequencing. Following synthesis of the identified peptides, competitive binding ELISA was performed with purified integrin to evaluate binding specificities for the target αvβ6 integrin as well as closely related αv-integrins.
Anti-αv capture antibody P2W7 (5 μg/mL, Novus Biologicals) was coated onto Nunc MaxiSorp 96-well plates, followed by blocking with BSA overnight at 4° C. All wells were washed 3 times with PBS, followed by plating of purified integrin (3 μg/mL) and incubating at room temperature in a humid chamber for 1 hour. Peptide solutions, titrated (1 μM-1 pM for αvβ6 integrin and 100 μM-100 pM for αvβ3 integrin) and mixed with biotinylated natural ligand, were added to the integrin-coated wells in triplicate. […] Captured biotinylated natural ligand was detected with ExtrAvidin-HRP and developed with TMB substrate. Half-maximal inhibitory concentration (IC50) of peptides was determined fitting to sigmoidal dose-response model in GraphPad Prism 6.0 (FIG. 5A).

CC(C)C[C@H](NC(=O)[C@H](Cc1ccc(O)cc1)NC(=O)[C@@H](NC(=O)[C@H](CC(C)C)NC(=O)[C@H](CC(=O)O)NC(=O)CNC(=O)[C@@H](NC(=O)CCOCCOCCOCCOCCOCCOCCOCCOCCOCCOCCOCCOCCN)C(C)C)[C@@H](C)O)C(=O)N[C@@H](CCCCN)C(=O)N[C@@H](CCCCNC(=O)c1ccc(F)cc1)C(N)=O
IC50: > 1000 nM

CC(=O)N[C@H](C(=O)NCC(=O)N[C@@H](CC(=O)O)C(=O)N[C@@H](CC(C)C)C(=O)N[C@H](C(=O)N[C@@H](Cc1ccc(O)cc1)C(=O)N[C@@H](CC(C)C)C(=O)N[C@@H](CCCCN)C(=O)N[C@@H](CCCCNC(=O)c1ccc(F)cc1)C(=O)NCCOCCOCCOCCOCCOCCOCCOCCOCCOCCOCCOCCOCCOCCOCCOCCOCCOCCOCCOCCOCCOCCOCCOCCOCCOCCOCCOCCOCCC(N)=O)[C@@H](C)O)C(C)C
IC50: > 10000 nM
